Data as given in the supplement of paper PMC10849652.
This is one part of the list.

Protein sequences, listed by entry. Tags and fused reporters are not part of them. Lines headed by an entry give the natural chain unless they say otherwise; changes in a name come on top.
UniProt Q562R1, whole entry, looked up: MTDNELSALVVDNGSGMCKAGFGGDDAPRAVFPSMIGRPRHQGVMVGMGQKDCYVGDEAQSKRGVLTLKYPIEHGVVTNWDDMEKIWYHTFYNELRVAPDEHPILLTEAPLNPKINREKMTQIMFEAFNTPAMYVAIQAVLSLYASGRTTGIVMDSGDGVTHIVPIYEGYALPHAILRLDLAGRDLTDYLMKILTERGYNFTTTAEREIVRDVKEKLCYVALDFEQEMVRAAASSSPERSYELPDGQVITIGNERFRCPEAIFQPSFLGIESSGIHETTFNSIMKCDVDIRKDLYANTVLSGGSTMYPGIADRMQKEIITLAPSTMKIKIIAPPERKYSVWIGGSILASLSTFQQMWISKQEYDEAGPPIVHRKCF
UniProt Q9UKU0: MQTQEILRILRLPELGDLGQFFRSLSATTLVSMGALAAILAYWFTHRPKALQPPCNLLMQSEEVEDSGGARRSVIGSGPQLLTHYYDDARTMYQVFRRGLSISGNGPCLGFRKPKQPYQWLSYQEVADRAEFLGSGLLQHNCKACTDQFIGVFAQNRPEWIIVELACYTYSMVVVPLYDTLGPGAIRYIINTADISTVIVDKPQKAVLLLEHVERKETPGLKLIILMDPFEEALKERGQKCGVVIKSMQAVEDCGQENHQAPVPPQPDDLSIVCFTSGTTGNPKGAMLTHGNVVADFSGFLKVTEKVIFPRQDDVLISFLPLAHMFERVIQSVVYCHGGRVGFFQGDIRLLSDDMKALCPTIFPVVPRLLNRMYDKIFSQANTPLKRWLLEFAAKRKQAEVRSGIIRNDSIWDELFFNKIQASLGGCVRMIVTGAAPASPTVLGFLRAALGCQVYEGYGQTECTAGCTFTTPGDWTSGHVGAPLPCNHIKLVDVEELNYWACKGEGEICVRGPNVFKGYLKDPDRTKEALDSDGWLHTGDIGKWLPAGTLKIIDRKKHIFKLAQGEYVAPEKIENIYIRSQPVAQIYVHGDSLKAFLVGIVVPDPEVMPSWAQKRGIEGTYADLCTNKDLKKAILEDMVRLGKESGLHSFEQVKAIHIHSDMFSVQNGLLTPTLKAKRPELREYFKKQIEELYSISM
UniProt P21439, whole entry, looked up: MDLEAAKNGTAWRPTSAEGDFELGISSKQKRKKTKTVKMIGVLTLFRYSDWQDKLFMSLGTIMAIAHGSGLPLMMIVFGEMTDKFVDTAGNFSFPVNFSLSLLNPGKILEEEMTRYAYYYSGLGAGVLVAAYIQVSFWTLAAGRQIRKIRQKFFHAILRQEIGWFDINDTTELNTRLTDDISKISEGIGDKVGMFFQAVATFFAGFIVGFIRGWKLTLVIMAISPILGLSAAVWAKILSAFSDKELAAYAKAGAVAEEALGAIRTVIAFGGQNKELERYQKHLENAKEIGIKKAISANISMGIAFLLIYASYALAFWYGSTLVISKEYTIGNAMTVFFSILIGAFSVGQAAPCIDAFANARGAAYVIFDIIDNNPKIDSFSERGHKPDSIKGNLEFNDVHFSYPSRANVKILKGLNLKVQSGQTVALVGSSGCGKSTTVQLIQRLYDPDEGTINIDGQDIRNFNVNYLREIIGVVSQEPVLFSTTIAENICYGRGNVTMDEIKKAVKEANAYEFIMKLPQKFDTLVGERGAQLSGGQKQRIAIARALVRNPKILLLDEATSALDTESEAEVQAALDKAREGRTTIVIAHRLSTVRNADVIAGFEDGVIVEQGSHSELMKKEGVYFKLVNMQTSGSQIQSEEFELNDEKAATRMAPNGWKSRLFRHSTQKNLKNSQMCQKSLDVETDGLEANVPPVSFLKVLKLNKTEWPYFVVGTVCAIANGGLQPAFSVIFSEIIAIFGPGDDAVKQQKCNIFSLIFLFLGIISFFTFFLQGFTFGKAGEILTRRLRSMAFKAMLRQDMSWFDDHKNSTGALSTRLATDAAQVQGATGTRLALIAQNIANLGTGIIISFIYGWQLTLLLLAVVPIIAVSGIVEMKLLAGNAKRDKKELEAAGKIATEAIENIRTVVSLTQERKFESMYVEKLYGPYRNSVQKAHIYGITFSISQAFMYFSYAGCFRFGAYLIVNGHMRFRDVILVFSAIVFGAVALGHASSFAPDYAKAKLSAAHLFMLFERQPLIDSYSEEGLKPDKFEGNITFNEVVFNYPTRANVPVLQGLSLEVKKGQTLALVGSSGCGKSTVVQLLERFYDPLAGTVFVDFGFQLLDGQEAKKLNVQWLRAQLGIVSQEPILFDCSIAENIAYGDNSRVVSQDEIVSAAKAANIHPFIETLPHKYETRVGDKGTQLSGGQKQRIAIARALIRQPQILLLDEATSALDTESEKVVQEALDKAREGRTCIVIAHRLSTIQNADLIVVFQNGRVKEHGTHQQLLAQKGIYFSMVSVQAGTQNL
UniProt Q9BUJ0: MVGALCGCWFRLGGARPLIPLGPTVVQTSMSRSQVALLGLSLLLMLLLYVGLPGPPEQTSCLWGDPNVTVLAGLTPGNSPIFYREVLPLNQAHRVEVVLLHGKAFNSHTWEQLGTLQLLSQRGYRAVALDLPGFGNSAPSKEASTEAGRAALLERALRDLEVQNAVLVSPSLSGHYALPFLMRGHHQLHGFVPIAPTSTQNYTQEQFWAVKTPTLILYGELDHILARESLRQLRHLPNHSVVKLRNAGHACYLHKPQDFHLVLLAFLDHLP
UniProt Q8TDG2: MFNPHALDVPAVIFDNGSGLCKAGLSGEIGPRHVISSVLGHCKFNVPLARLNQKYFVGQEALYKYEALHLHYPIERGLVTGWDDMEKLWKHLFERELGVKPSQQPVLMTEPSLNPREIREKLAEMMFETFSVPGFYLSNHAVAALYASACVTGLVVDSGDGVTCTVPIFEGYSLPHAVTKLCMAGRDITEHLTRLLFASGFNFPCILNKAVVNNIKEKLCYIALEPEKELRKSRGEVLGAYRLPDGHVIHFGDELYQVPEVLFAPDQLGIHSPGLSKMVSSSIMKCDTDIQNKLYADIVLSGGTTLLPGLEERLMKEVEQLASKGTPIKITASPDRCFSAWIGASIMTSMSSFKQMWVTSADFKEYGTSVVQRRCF
UniProt Q76LX8: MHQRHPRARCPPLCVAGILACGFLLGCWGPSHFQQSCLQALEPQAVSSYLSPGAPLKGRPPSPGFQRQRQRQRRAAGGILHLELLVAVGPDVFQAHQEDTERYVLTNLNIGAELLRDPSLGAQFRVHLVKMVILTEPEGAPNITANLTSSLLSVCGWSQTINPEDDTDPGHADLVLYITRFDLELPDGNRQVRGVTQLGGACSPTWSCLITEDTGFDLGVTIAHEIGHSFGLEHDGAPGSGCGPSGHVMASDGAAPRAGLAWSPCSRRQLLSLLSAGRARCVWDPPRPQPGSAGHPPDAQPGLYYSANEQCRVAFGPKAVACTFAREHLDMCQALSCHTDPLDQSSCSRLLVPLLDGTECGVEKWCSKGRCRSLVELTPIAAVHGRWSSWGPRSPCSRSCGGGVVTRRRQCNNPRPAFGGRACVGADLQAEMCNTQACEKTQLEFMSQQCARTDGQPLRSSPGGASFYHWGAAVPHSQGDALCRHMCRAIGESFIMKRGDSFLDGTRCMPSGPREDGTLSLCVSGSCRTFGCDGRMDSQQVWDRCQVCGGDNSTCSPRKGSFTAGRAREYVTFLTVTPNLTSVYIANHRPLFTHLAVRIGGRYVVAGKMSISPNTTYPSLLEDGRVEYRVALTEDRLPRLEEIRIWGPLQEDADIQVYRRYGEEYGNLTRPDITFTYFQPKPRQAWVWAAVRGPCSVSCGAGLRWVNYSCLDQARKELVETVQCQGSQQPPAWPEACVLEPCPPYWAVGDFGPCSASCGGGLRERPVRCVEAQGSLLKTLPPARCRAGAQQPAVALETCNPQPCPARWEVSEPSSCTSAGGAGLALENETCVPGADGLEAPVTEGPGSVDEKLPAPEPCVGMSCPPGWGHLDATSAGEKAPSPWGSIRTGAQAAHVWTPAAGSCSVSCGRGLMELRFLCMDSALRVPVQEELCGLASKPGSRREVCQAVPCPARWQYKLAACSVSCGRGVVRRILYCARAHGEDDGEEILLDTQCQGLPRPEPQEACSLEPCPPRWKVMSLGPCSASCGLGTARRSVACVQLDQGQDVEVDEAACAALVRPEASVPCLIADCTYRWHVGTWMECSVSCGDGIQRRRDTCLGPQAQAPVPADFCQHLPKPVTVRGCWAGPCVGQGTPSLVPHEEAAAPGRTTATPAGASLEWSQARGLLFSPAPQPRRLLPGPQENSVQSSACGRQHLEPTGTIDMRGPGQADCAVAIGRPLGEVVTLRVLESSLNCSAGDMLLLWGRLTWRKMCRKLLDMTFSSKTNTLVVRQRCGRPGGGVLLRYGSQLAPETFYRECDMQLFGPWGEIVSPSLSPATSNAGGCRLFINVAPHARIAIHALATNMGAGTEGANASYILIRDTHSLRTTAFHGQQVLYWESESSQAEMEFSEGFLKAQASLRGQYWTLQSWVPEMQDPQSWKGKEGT
UniProt Q8TB40: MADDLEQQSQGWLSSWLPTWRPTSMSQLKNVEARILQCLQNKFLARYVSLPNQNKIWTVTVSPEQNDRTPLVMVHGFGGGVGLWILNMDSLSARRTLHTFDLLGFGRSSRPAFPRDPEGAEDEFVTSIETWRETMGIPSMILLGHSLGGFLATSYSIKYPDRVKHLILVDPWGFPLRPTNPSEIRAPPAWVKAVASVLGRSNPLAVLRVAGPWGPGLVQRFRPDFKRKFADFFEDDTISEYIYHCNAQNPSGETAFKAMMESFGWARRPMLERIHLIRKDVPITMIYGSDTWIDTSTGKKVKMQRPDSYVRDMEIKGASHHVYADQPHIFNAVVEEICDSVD
UniProt Q9BV23: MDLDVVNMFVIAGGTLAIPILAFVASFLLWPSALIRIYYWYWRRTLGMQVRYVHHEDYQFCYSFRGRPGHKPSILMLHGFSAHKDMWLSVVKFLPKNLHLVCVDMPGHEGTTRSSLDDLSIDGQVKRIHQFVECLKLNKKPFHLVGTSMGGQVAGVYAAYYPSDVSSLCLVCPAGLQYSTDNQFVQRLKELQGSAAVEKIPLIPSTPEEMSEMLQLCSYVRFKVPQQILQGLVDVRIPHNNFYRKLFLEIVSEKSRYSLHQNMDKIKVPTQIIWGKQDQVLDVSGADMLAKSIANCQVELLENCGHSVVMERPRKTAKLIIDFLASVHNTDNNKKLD
UniProt Q8N6N7: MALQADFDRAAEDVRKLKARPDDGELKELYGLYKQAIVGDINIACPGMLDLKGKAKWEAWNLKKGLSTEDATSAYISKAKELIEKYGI
UniProt P08183, whole entry, looked up: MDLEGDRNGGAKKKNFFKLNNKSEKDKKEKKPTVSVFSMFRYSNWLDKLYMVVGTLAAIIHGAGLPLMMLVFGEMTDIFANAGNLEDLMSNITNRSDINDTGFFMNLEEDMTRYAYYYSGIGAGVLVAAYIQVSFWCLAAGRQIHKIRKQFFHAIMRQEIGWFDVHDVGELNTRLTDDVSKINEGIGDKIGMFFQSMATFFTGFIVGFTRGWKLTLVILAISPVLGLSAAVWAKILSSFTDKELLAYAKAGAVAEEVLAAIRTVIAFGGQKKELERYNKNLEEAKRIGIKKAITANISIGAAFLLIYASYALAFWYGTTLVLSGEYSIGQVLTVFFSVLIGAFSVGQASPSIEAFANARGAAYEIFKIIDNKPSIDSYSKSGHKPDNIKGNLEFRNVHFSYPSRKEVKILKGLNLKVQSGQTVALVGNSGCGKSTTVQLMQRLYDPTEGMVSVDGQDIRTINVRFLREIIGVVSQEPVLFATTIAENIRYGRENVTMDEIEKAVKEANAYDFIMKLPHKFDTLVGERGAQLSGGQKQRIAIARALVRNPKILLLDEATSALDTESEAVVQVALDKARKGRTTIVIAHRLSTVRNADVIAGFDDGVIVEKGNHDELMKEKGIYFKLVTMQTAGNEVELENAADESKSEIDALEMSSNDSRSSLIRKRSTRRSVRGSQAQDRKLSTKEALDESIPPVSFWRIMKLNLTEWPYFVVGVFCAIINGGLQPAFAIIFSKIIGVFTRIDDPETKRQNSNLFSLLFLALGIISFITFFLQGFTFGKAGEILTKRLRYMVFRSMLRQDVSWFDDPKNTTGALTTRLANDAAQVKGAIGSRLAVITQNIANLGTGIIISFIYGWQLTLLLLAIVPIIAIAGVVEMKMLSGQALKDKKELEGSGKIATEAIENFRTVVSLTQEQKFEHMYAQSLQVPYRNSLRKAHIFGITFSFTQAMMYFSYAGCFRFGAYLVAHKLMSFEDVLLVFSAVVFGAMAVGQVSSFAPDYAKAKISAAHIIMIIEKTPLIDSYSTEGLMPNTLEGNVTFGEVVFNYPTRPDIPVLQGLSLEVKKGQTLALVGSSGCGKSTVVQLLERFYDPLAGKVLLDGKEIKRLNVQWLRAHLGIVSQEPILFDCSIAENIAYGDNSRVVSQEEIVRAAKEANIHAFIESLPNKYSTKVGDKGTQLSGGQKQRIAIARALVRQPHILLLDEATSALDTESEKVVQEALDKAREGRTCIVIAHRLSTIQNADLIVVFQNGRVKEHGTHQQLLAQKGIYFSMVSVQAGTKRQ

Tests used:
Experiment in all cases: log2 fold change, soluble protein after heating vs DMSO (PISA); higher = thermal stabilisation; K562 cells, 10 uM, 30 min; active = over 0.2 and 3.5 SD of the protein, either way, in both replicates (recomputed)
[1] = compound: CS(=O)(=O)c1ccc(-c2cnc(N)c(C(=O)Nc3ccccc3)n2)cc1
In short: (§1)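 Soluble protein was defined as the supernatant after 21,000xg for 90 min. It came from K562 cells at 2×10^6 cells/mL given 10 μM compound for 30 min, heated in aliquots for 3 min across 48°C-58°C, pooled, and extracted in PBS with 0.5% NP-40 at 4°C, and was quantified by TMTpro 16plex LC-MS/MS with equalised channel sums. Thermal stability against control samples, from duplicates, is reported as log2 fold change.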

[2] = compound: C[C@@H]1COCCN1C2=NC(=NC(=C2)C3(CC3)S(=O)(=O)C)C4=C5C=CNC5=CC=C4
In short: as §1

gandotinib = compound: Cc1cc(Nc2cc(CN3CCOCC3)c3nc(C)c(Cc4ccc(Cl)cc4F)n3n2)n[nH]1 [gandotinib]
In short: as §1

[3] = compound: Cc1cc(SCc2sc(-c3ccc(C(F)(F)F)cc3)nc2C)ccc1OCC(=O)O
In short: as §1

ispinesib = compound: Cc1ccc(C(=O)N(CCCN)[C@@H](c2nc3cc(Cl)ccc3c(=O)n2Cc2ccccc2)C(C)C)cc1 [ispinesib]
In short: as §1

bafetinib = compound: Cc1ccc(NC(=O)c2ccc(CN3CC[C@H](N(C)C)C3)c(C(F)(F)F)c2)cc1Nc1nccc(-c2cncnc2)n1 [bafetinib]
In short: as §1

[4] = compound: Cc1cccc(CC(=O)N2CCc3c2ccc(-c2cn(C)c4ncnc(N)c24)c3F)n1
In short: as §1

nilotinib = compound: Cc1cn(-c2cc(NC(=O)c3ccc(C)c(Nc4nccc(-c5cccnc5)n4)c3)cc(C(F)(F)F)c2)cn1 [nilotinib]
In short: as §1

[5] = compound: Cc1nc(Nc2n[nH]c3c2CN(C(=O)N[C@H](CN(C)C)c2ccccc2)C3(C)C)c2sccc2n1
In short: as §1

dasatinib = compound: Cc1nc(Nc2ncc(C(=O)Nc3c(C)cccc3Cl)s2)cc(N2CCN(CCO)CC2)n1 [dasatinib]
In short: as §1

[6] = compound: Cc1ncc(-c2ccnc(Nc3ccc(S(C)(=O)=O)cc3)n2)n1C(C)C
In short: as §1

[7] = compound: Cn1cc(-c2ccc3nnc(C(F)(F)c4ccc5ncccc5c4)n3n2)cn1
In short: as §1

tipifarnib = compound: Cn1cncc1[C@@](N)(c1ccc(Cl)cc1)c1ccc2c(c1)c(-c1cccc(Cl)c1)cc(=O)n2C [tipifarnib]
In short: as §1

mubritinib = compound: FC(F)(F)c1ccc(/C=C/c2nc(COc3ccc(CCCCn4ccnn4)cc3)co2)cc1 [mubritinib]
In short: as §1

tozasertib = compound: Cc1cc(Nc2cc(N3CCN(C)CC3)nc(Sc3ccc(NC(=O)C4CC4)cc3)n2)n[nH]1 [tozasertib]
In short: as §1

duvelisib = compound: C[C@H](Nc1ncnc2nc[nH]c12)c1cc2cccc(Cl)c2c(=O)n1-c1ccccc1 [duvelisib]
In short: as §1

[8] = compound: C[C@H](C1=CC=C(C=C1)C(=O)NC2=C3C=CNC3=NC=C2)N
In short: as §1

[9] = compound: Cn1cc(-c2ccc3c(c2)CCN3C(=O)Cc2cccc(C(F)(F)F)c2)c2c(N)ncnc21
In short: as §1

crizotinib = compound: C[C@@H](Oc1cc(-c2cnn(C3CCNCC3)c2)cnc1N)c1c(Cl)ccc(F)c1Cl [crizotinib]
In short: as §1

doramapimod = compound: Cc1ccc(-n2nc(C(C)(C)C)cc2NC(=O)Nc2ccc(OCCN3CCOCC3)c3ccccc23)cc1 [doramapimod]
In short: as §1

Measured: log2 fold change

ACTBL2 (UniProt Q562R1)
inactive: [1] -0.022 | [2] -0.005 | gandotinib -0.828 | [3] -0.299 | ispinesib -0.307 | bafetinib 0.113 | [4] -0.124 | nilotinib 0.579 | [5] -0.067 | dasatinib 0.398 | [6] -0.051 | [7] 0.336 | tipifarnib 0.488 | mubritinib -0.267

A2ML1 (UniProt A8K2U0)
inactive: [1] 0.648 | tozasertib 0.166 | ispinesib -0.139 | nilotinib -0.053 | [5] 0.103 | [6] 0.034 | [7] 0.074 | tipifarnib 0.382 | mubritinib -0.174

ACAD10 isoform 5 (UniProt Q6JQN1)
inactive: duvelisib -0.181 | [3] 0.086 | ispinesib 0.114 | dasatinib -0.006 | [7] 0.018

Copied from the listing (two entries):
ACTBL2 (UniProt Q562R1)
inactive: [1] -0.022 | [2] -0.005 | gandotinib -0.828 | [3] -0.299 | ispinesib -0.307 | bafetinib 0.113 | [4] -0.124 | nilotinib 0.579 | [5] -0.067 | dasatinib 0.398 | [6] -0.051 | [7] 0.336 | tipifarnib 0.488 | mubritinib -0.267

A2ML1 (UniProt A8K2U0)
inactive: [1] 0.648 | tozasertib 0.166 | ispinesib -0.139 | nilotinib -0.053 | [5] 0.103 | [6] 0.034 | [7] 0.074 | tipifarnib 0.382 | mubritinib -0.174

Later entries

ACTN1 (UniProt H9KV75)
inactive: [1] 0.142 | [2] 0.012 | [8] -0.105 | duvelisib 0.104 | tozasertib -0.181 | [3] -0.078 | bafetinib 0.15 | nilotinib -0.165 | [5] 0.073 | dasatinib 0.019 | [6] -0.092 | [9] -0.069 | tipifarnib -0.295 | mubritinib 0.199

ACSL6 isoform 1 (UniProt Q9UKU0)
inactive: [1] -0.055 | [2] 0.164 | gandotinib -0.145 | [3] 0.157 | ispinesib -0.198 | bafetinib 0.147 | [4] 0.057 | nilotinib -0.066 | [5] -0.066 | dasatinib 0.036 | [6] -0.025 | [7] 0.014 | mubritinib 0.015

ABCB4 (UniProt P21439)
inactive: tozasertib -0.12 | ispinesib -0.037 | [7] 0.062 | tipifarnib -0.151 | mubritinib 0.025

ACSF2 isoform 2 (UniProt Q96CM8)
inactive: gandotinib 0.118 | ispinesib 0.014 | [4] 0.001 | [7] 0.124

ABHD14A (UniProt Q9BUJ0)
inactive: [1] 0.04 | duvelisib -0.232 | [3] 0.127 | dasatinib 0

ACTRT1 (UniProt Q8TDG2)
inactive: [2] 0 | duvelisib 0.154 | gandotinib -0.108 | [3] -0.249 | bafetinib -0.225 | [4] -0.282 | dasatinib 0.139 | tipifarnib 0.164

ADAMTS13 (UniProt Q76LX8)
inactive: [1] -0.15 | [2] -0.132 | duvelisib -0.211 | [3] -0.121 | dasatinib 0.082 | tipifarnib 0.124

ABHD4 (UniProt Q8TB40)
inactive: [2] -0.028 | bafetinib -0.122

ABHD6 (UniProt Q9BV23)
inactive: [1] 0.073 | gandotinib 0.063 | tozasertib -0.085 | ispinesib -0.299 | [4] -0.143 | nilotinib 0.887 | [5] -0.025 | [6] 0.053 | [7] 0.174 | tipifarnib 0.407

ACBD7 (UniProt Q8N6N7)
inactive: duvelisib -0.078 | gandotinib 0.036 | [3] -0.053 | [4] -0.157 | dasatinib -0.027 | tipifarnib -0.042

ABCB1 (UniProt P08183)
inactive: crizotinib -0.194 | [8] 0.006 | tozasertib -0.256 | doramapimod 0.166 | [9] 0.023 | tipifarnib 0.19 | mubritinib -0.318

ABCF1 (UniProt Q5STZ8)
inactive: [8] -0.048 | tozasertib -0.034 | bafetinib 0.097 | nilotinib 0.243 | [5] 0.012 | [6] -0.04 | [9] 0.025

ABHD11 (UniProt Q8NFV4)
inactive: crizotinib 0.149 | [8] 0.057 | [3] -0.003 | doramapimod 0.028 | ispinesib 0.029 | bafetinib 0.011 | [4] 0.175 | nilotinib 0.003 | [5] -0.006 | dasatinib 0.073 | [6] 0.083 | [9] 0.024 | [7] 0.025 | tipifarnib 0.174 | mubritinib -0.235
active: [2] 0.309 | gandotinib 0.389
